In the supplement of paper PMC5949888 one finds growth estimate data, which are given here for 78 substances.

Most values lie at the floor of the assay. Slopes are relative: functional sequences can read slightly below zero. Some results are limits rather than exact numbers.

The series has as its system Saccharomyces cerevisiae PS128 hsf1 delta, HSF1(1-493) fusion. Kind of series: growth estimate (transactivation domain function in HSF1 fusion, heat-shock survival) (a.u. (slope of normalised read count over time)); higher = stronger growth at 37°C, i.e. more transactivation activity. The conditions noted are these: library: random library.
As to LFRYRQGRGVARDTTA, the growth estimate is < -0.25.

For the substance GGKHAGHTR, the growth estimate was < -0.25.

Turning to TLSHSGHYLSSIVDS, the growth estimate was -0.197.

RVRSTHCSMAPDDNSIALLL: the growth estimate is < -0.25.

Take CYSKLASWFCPGMHLFHNPW: the growth estimate is < -0.25.

Turning to SKLQSYGTPVWVLHHLCT, the growth estimate is < -0.25.

For SGHRGR, the growth estimate is < -0.25.

Turning to KGYLTALMWGMITPHSIR, the growth estimate was < -0.25.

For the substance KAINCEFSVAIKLPFGG, the growth estimate is < -0.25.

SRADCPPIKACLL: the growth estimate was < -0.25.

Consider RVPAIHPPCIELLSQSSSVR, for which the growth estimate is < -0.25.

For TSHKPPQDDDAVQKSQD, the growth estimate is < -0.25.

As for LFSTCVTFCLP, the growth estimate is < -0.25.

As for ESDYDDDGRVVFEYNRPGTN, the growth estimate was < -0.25.

With CDTSATQGGRLRLWGTVWAP, the growth estimate was < -0.25.

As for MCEIIGLHAGSRA, the growth estimate was < -0.25.

As for VLLGFRKHVLLFPGGLVTRS, the growth estimate is < -0.25.

For VKHDRG, the growth estimate is -0.221.

Consider QGNRSFGCIVYASYSGTSLE, for which the growth estimate is < -0.25.

Take GTCWVVKGRPRRLERSRPLY: the growth estimate was < -0.25.

As for RLNSISLSKSRSDGSRLVYG, the growth estimate was < -0.25.

As for DILFKRVGHTAEGDAGYHCH, the growth estimate was < -0.25.

PKSGVS: the growth estimate was < -0.25.

In the case of CPRTPREKVYESRPEFHIAN, the growth estimate was < -0.25.

With ALSYALHPVGR, the growth estimate was < -0.25.

For SSVSFLGRTG, the growth estimate is < -0.25.

CEGPRKYASLSEGGKCYWEQ: the growth estimate is < -0.25.

In the case of GCPYSLLGGTDGRKVWCSLT, the growth estimate is < -0.25.

Regarding LPIDRDTLID, the growth estimate was < -0.25.

As for YILVASVA, the growth estimate is < -0.25.

Take RQTAI: the growth estimate is < -0.25.

For NLKQHADSTCFWVCKR, the growth estimate was < -0.25.

Turning to ANFLVPKLSASVSTGAASAV, the growth estimate is < -0.25.

On to VGAGASGMYQP, for which the growth estimate is < -0.25.

Take VVVYYTNLGGVPGSMKSVIS: the growth estimate was < -0.25.

As for GIGDGVNAPAVLCPPARAGF, the growth estimate was 0.428.

Consider RPT, for which the growth estimate was < -0.25.

With LPIIEGSRGALCSVPKTNA, the growth estimate was < -0.25.

Regarding CTLSYCQLVS, the growth estimate was < -0.25.

As for FRMQLRCVTIDIGKYYTAPS, the growth estimate is < -0.25.

Regarding RLGIVEEVLGKLLFCYSSVV, the growth estimate was < -0.25.

On to QGLQVLTDSFLRAS, for which the growth estimate is < -0.25.

Regarding DGGDRVTVTGVICARWDRPG, the growth estimate was < -0.25.

In the case of TKRGSFIDHLLGAINR, the growth estimate is < -0.25.

For DKLAILRVLRM, the growth estimate was < -0.25.

For WCGVKGYGCCH, the growth estimate is < -0.25.

As to RCYKPPQSPAGRELYSSCVV, the growth estimate was < -0.25.

As to SCTCLPRARV, the growth estimate was < -0.25.

As for LLVQCLEGCPIIR, the growth estimate is -0.248.

Regarding NRLDFLT, the growth estimate was < -0.25.

As for NTSRALTYRSSPN, the growth estimate was < -0.25.

Turning to MDDSVLTCILGGPCSVSIVR, the growth estimate was < -0.25.

As to PELRSLARNAALKALQHGLV, the growth estimate is < -0.25.

In the case of SPRLGGCYTVVEISSKVACV, the growth estimate is < -0.25.

Take MSSVGTAILHSYPSRQTPRL: the growth estimate was -0.173.

With SFYSSCNF, the growth estimate was < -0.25.

In the case of ALEEG, the growth estimate is < -0.25.

With LLYPSRIA, the growth estimate was < -0.25.

As to ARLEGIVKDARRKLLDGIHR, the growth estimate was < -0.25.

SYPHLKSSDHLSCAQPL: the growth estimate is -0.241.

Turning to SNTTTGWMV, the growth estimate was < -0.25.

With LGEVDQEHRDDSTNYLPECT, the growth estimate is < -0.25.

HKGPPQEGTKD: the growth estimate was < -0.25.

Turning to ISSVWYWFLRRVFQLRNGHT, the growth estimate was < -0.25.

Turning to SLNVYERGSSCWKNATL, the growth estimate is < -0.25.

Turning to CIYDGQF, the growth estimate is -0.246.

For the substance RSAYGRSHRCTASNCSSCLY, the growth estimate was < -0.25.

For the substance TQEPTADRMG, the growth estimate was < -0.25.

Turning to AVIAEADRRMALCESFQVPD, the growth estimate is < -0.25.

Consider GLRAGLVTRYFSLRSTYMSL, for which the growth estimate is < -0.25.

As to PVGDE, the growth estimate was < -0.25.

Turning to PCTLRRWVNGLARRSPV, the growth estimate is < -0.25.

LSRTMNARAASNQQGVRGTT: the growth estimate is < -0.25.

Consider YIEFYLSR, for which the growth estimate is < -0.25.

In the case of AEKRELVPSRPFKYRGECAQ, the growth estimate is < -0.25.

Turning to ADEYVRYAFRRTFLSSWSRN, the growth estimate was < -0.25.

With FAVGFDCAFRCRLGIMNREN, the growth estimate is < -0.25.

As to CGCR, the growth estimate is < -0.25.
